Data on 1 substance can be found in publication PMC6071530.

Amino acid sequences for entries named in this document (tags omitted).
UniProt P26447: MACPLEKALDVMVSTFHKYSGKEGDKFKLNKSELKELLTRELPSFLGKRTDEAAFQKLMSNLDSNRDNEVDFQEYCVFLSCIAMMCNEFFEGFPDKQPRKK

Results are given in words; binding and its absence hold for the method and conditions named.

This test has as its target ErbB2-Fc (UniProt P04626). The test is described as follows: SPR; BIAcore 2000; 2000 RU of ErbB/Fc chimera immobilized covalently on a CM4 chip; S100A4 or peptides as analyte; apparent affinities calculated from binding kinetics; both purified.

On to “Recombinant human S100A4 (from UniProt P26447 1-101)”, for which the binding entry is recorded as “no binding”.
